PubChem BioAssay AID1159578 – Peter MacCallum Cancer Centre – 2015
The deposit covers about 18,000 reagents; this is a random part of them. About 1,030 of all reagents (5.7%) were called active. 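Inactive calls also include pools with fewer than 3300 nuclei, whose migration was not assessed.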 The raw values are shown without normalisation. Further read-outs or replicates are left out here.

Assay: 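Genome-wide hunt for genes controlling movement of lymphatic endothelial cells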 (primary screen)
Cells: human lymphatic endothelial cells
Reagents: siRNA pool against human genes, 40 nM
Duration: 48 h after transfection
Detection: 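High-content imaging of dye-stained cells in a scratch assay measures filled wound area and nuclei per well; duplicate means given as ratio to mock and robust z-score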
Reading the numbers: migration robust z-score: higher = faster migration into the scratch; nuclei per well: higher = more cells in the well
Hit rule: 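Migration changed when robust z exceeds 2 or falls below -2 and mean nuclei number is at least 3300; otherwise not called changed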
Calls: active = migration changed; inactive = no migration change, or too few cells

With COL18A1-AS1, how do the results read?
migration robust z-score: -0.9; migration class with cell-count check: migration z between -2 and 2; enough cells; nuclei per well, duplicate mean: 5526; activity call: inactive

Which result is listed for PER2?
migration robust z-score: 1.19; migration class with cell-count check: migration z between -2 and 2; enough cells; nuclei per well, duplicate mean: 5830; activity call: inactive

How did the screen score SLC15A1?
migration robust z-score: -0.8; migration class with cell-count check: migration z between -2 and 2; enough cells; nuclei per well, duplicate mean: 5524; activity call: inactive

What did the screen give for MPZL3?
migration robust z-score: -2.75; migration class with cell-count check: under 3300 nuclei; migration not judged; nuclei per well, duplicate mean: 2046; activity call: inactive

With ACTR2, how do the results read?
migration robust z-score: -0.8; migration class with cell-count check: migration z between -2 and 2; enough cells; nuclei per well, duplicate mean: 5796; activity call: inactive

How did the screen score BACH2?
migration robust z-score: 0.64; migration class with cell-count check: migration z between -2 and 2; enough cells; nuclei per well, duplicate mean: 5474; activity call: inactive

Which result is listed for IFT27?
migration robust z-score: -0.05; migration class with cell-count check: migration z between -2 and 2; enough cells; nuclei per well, duplicate mean: 6607; activity call: inactive

With CHCHD3, what was measured?
migration robust z-score: 3.05; migration class with cell-count check: migration z above 2; enough cells; nuclei per well, duplicate mean: 6480; activity call: active

For DOP1A, how do the results read?
migration robust z-score: 0.36; migration class with cell-count check: migration z between -2 and 2; enough cells; nuclei per well, duplicate mean: 5978; activity call: inactive

Which result is listed for ASCL4?
migration robust z-score: 0.54; migration class with cell-count check: migration z between -2 and 2; enough cells; nuclei per well, duplicate mean: 4768; activity call: inactive

With PSMD9, what was measured?
migration robust z-score: -1.48; migration class with cell-count check: migration z between -2 and 2; enough cells; nuclei per well, duplicate mean: 5266; activity call: inactive

For NCOA7, what does the deposit list?
migration robust z-score: -0.9; migration class with cell-count check: migration z between -2 and 2; enough cells; nuclei per well, duplicate mean: 5284; activity call: inactive

2 consecutive reagents from above:
COL18A1-AS1: migration robust z-score = -0.9; migration class with cell-count check = migration z between -2 and 2; enough cells; nuclei per well, duplicate mean = 5526; activity call = inactive
PER2: migration robust z-score = 1.19; migration class with cell-count check = migration z between -2 and 2; enough cells; nuclei per well, duplicate mean = 5830; activity call = inactive
